## Percent effect of library compounds

Amino acid sequences for entries named in this document (tags omitted). Residues count along the entry.
UniProt P9WFT3, whole entry: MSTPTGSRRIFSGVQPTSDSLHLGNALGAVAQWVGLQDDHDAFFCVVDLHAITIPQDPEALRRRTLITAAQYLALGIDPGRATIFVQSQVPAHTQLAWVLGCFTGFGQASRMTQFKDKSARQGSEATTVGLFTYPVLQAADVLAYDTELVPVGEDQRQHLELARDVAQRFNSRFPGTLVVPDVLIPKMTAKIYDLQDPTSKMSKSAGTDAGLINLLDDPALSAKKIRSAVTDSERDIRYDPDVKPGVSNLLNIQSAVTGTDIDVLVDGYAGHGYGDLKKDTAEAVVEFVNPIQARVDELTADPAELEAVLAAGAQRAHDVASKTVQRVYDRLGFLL
UniProt P9WNZ1, whole entry: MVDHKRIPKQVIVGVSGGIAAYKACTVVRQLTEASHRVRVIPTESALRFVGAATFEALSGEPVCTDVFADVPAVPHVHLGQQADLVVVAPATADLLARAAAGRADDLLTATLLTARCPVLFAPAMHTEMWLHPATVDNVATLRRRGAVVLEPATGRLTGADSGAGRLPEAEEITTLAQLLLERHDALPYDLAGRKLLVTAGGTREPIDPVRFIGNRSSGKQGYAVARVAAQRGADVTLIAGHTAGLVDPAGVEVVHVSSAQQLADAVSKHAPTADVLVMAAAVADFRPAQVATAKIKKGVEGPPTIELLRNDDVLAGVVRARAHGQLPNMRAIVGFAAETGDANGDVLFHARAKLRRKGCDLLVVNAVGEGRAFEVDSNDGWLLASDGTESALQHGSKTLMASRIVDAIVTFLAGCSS
UniProt A4I591, 1-473: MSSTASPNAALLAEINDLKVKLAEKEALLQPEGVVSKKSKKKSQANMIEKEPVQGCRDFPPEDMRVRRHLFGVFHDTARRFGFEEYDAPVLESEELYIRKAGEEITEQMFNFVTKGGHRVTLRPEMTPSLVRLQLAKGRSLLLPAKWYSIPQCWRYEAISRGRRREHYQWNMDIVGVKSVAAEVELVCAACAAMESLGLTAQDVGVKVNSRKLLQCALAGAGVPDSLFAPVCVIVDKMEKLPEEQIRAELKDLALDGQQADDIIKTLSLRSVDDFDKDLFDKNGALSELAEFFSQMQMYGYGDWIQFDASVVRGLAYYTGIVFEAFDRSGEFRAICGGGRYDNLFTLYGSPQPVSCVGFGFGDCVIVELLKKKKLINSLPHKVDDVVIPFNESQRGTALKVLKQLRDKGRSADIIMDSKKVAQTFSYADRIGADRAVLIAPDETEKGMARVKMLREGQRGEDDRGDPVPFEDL
UniProt I6X8D2, whole entry: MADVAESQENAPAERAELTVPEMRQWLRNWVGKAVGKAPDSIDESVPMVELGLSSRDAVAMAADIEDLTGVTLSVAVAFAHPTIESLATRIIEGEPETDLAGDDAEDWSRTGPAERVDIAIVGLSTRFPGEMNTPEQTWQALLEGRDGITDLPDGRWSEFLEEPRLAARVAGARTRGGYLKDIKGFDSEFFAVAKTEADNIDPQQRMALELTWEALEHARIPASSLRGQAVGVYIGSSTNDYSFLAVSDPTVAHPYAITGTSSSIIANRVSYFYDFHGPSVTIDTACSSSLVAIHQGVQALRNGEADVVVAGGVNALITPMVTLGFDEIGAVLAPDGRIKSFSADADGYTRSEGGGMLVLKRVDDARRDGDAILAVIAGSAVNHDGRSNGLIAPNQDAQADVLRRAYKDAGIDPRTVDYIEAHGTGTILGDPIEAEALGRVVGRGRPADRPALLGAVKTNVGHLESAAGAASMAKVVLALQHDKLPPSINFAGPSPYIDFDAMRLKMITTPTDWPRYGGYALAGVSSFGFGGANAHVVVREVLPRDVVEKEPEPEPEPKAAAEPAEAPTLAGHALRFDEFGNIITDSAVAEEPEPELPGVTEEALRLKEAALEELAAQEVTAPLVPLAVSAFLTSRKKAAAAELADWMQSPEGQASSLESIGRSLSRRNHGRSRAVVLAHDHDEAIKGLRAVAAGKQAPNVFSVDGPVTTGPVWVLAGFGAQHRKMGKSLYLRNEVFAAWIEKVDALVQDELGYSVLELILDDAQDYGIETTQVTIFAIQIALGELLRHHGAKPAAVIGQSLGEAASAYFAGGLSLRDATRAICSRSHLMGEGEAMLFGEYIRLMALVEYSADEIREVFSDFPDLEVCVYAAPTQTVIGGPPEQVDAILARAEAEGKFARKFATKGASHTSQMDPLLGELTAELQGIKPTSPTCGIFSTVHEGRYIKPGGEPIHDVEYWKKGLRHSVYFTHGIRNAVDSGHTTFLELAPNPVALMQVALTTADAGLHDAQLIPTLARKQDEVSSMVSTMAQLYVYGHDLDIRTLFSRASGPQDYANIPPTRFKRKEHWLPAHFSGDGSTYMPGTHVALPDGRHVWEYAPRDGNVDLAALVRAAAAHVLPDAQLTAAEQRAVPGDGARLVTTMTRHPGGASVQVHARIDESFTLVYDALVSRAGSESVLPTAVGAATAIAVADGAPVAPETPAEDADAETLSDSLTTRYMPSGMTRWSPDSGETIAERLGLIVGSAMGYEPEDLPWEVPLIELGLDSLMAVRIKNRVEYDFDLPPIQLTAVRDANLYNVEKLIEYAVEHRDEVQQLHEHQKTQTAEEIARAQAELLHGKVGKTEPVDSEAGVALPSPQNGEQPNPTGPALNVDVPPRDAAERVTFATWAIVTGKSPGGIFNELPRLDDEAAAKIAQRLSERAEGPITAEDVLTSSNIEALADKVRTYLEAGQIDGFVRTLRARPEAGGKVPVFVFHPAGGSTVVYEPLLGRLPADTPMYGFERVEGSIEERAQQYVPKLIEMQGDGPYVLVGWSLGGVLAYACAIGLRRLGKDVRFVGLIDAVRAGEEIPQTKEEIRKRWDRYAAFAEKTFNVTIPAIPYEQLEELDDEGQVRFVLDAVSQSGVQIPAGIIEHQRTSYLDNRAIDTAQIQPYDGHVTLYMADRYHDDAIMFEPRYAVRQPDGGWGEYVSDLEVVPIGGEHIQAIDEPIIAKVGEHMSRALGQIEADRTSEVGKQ

The values are deposited in ChEMBL (CHEMBL3988442, “University of Dundee, Small-Polar-MMV Screening Library” (2021)).

A: 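Tryptophan-tRNA ligase, Mycobacterium tuberculosis (UniProt P9WFT3). Enzyme assay of tryptophanyl-tRNA synthetase; the read-out is not stated. Compounds at 10 µM. Direction is not recorded; retested compounds ran higher, which suggests that high means inhibition. Of about 65,000 compounds tested this way, about 64 (0.098%) reached 50% or more in at least one test.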
B: 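Enzyme assay of CoaBC with a phosphate dye (Biomol Green) read at 650 nm. Target: Coenzyme A biosynthesis protein CoaBC, Mycobacterium tuberculosis (UniProt P9WNZ1). Tested at 30 µM. Direction is inferred from only a few compounds that gave an IC50; most scored high, so higher reads as stronger inhibition. Most strong results did not repeat in a second test. Of about 67,000 compounds tested this way, about 40 (0.06%) reached 50% or more in at least one test.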
C: 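Histidine-tRNA ligase, Leishmania infantum (UniProt A4I591). Enzyme assay of histidyl-tRNA synthetase; the read-out is not stated. Concentration: 30 µM. Higher reads as stronger inhibition (inferred: compounds with an IC50 in retests scored well above the rest). The assay is labelled LdHisRS but filed under L. infantum. Of about 69,000 compounds tested this way, about 410 (0.6%) reached 50% or more in at least one test.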
D: 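Enzyme assay of the thioesterase domain of polyketide synthase 13; the read-out is not stated. Target: Polyketide synthase Pks13, Mycobacterium tuberculosis (UniProt I6X8D2). Compounds at 30 µM. Higher reads as stronger inhibition (inferred from which compounds were picked for retests). Size under these conditions: about 67,000 compounds, about 300 of them at 50% or above in at least one test.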

The filed quantity is “Percent Effect” (%).
The controls that fix the scale are not given in the record; negative values are as filed.
Compounds were drawn at random from those tested, without regard to their results.
Two or more numbers in one place are separate tests of the same structure; such repeats can differ widely.
A dash means the value is not listed here; it may have been measured.

SMILES,A,B,C,D
CCC[C@H]1CN(Cc2cc(C#N)n(C)c2C)C[C@@H]1N(C)C,-0.6256,-12.13,1.333,-15.61
CN(Cc1ccco1)[C@@H]1CN(Cc2cccnc2)[C@@H]2CCCO[C@H]12,-1.895,2.101,29,7.427
CCOCC(O)CN1CCN(C(=O)CC(C)(C)C)CC1 (centres undefined),1.174,4.152,4.762,-4.957
Cc1nn2cccnc2c1C(=O)NCc1ccnc(OCC2CC2)c1,0.5084,0.4866,4.444,1.475
Cc1cc(C)n(Cc2ccc(-c3noc(C(=O)NC[C@@H](C)O)n3)cc2)n1,3.172,-2.41,1.099,4.4
CCCN(Cc1cnn(C)c1)CC1CCCN(S(C)(=O)=O)C1 (centres undefined),-4.046,-4.912,9.649,7.509
O=C(CCCn1cccn1)N1CCCC(n2cncn2)C1 (centres undefined),-1.639,11.79,-1.667,-4.105
CN1CCN2CCN(Cc3ccccc3Cn3cccn3)CC2C1 (centres undefined),-6.372,-0.4673,14.47,-5.597
Cc1cc(C)n(C2CN(C(=O)c3cn4ccsc4n3)C2)n1,-1.234,-2.086,13.73,-1.526
COc1ccc(Cl)cc1CS(=O)(=O)Cc1nc(C2CC2)no1,0.8189,-2.008,10.45,-27.15
CCn1ncc(C(=O)N2CCCN(CCCc3ccccc3)CC2)c1C,-0.9428,5.212,20.97,-17.15
CNC(=O)C1CCCN(C(=O)C2CCC2)C1 (centres undefined),-4.856,6.517,11.76,-13.44
CN(Cc1ccc(C#N)cc1)C(=O)c1ccnc(OC2CCC2)c1,8.73,-5.769,-6.849,3.681
CS(=O)(=O)CCC(=O)NC1(c2cccc(Br)c2)CC1,-2.554,5.33,17.31,-8.069
CN1C(=O)[C@H]2CC[C@@H]1CN(S(=O)(=O)c1ccc(Cl)cc1Cl)C2,-0.4188,12.53,-13.27,-49.78
OCC1CCN(C[C@@H]2CN(C3Cc4ccccc4C3)C[C@@H]2CO)CC1,7.68,5.052,16.33,-8.533
NC(=O)NC(=O)CNC1(c2ccc(Cl)cc2)CCC1,-0.2712,1.899,27.5,9.205
CCn1cc(S(=O)(=O)NC2CCCC2)cn1,0.2973,5.295,8.824,-12.71
Cn1cc(C(=O)OCC(N)=O)c(-c2ccc(F)cc2F)n1,-3.802,-3.719,1.333,-27.8
CC(C)CNC(=O)N1C[C@H]2C[C@H](C(=O)NCc3ccccc3)[C@@H](C1)O2,1.221,2.941,14.55,-16.34
Cc1nn(C)c2ncc(CN3CCN(Cc4ccco4)CC3)cc12,-0.7424,4.453,4.878,-0.6718
CC(C)(C)C(=O)NCCc1ccn(-c2ccccc2)n1,-4.581,7.05,21.62,-9.716
O=C1CCCN1CCc1noc(-c2ccc(Cl)cc2)n1,1.874,2.386,12.5,-14.71
CNC(=O)CN1CCOCC2(CCCN(Cc3ccoc3)C2)C1 (centres undefined),-0.1658,0.2353,0.9174,-11.92
CC1COCCN1Cc1nc(-c2cccc(C(F)(F)F)c2)no1 (centres undefined),-4.583,6.798,12.5,7.859
Cc1cnc(N2C[C@@H]3[C@@H](C2)OCC(=O)N3CC2CC2)nc1,9.593,-,17.09,9.691
c1ccc(-c2noc(CN3CCc4cncnc4C3)n2)nc1,-1.73,0.266,36,-2.063
Cc1ncccc1C(=O)Nc1ccc2ccn(CCN(C)C)c2c1,-2.683,-,17.5,-37.16
O=C([C@@H]1CC[C@@H]2[C@@H](CCN2Cc2cccs2)O1)N1CCCCO1,0.1627,7.492,17.14,-18.26
COc1ccc(NC2CCCN(Cc3cnc(N(C)C)s3)C2)cc1OC (centres undefined),5.389,46.7 and 15.98,40.66,-13.36
CCc1nc(CN2CCCC(NCc3cnn(C(C)(C)C)c3)C2)no1 (centres undefined),-2.124,6.17,-34.83,-26.63
CN1CCN(c2ncnc3c2CCN(Cc2nccn2C)CC3)CC1,13.47,-,10.26,9.144
c1cnc(-c2nc(CN3CCOC(Cn4cncn4)C3)cs2)nc1 (centres undefined),-2.739,5.101,30.95,-5.736
COCCN1CCC2(CCC1=O)CN(c1ccnc(SC)n1)CCN2C (centres undefined),-2.829,1.028,2.083,-27.58
N#Cc1ccc(CN2CCN(C(=O)CCn3cncn3)CC2)cc1,1.722,5,19.78,-8.974
Cc1cc(CN(C)C(=O)NCc2ccnc(N(C)C)c2)no1,0.486,2.778,19.44,-10.05
CCn1cc(Cn2cc(-c3cccc(C(C)N(C)C)c3)nn2)cn1 (centres undefined),-3.153,2.571,9.375,-23.13

For reference, 2 entries once more:

{"smiles": "CNC(=O)C1CCCN(C(=O)C2CCC2)C1", "stereo": "centres undefined", "A": -4.856, "B": 6.517, "C": 11.76, "D": -13.44}
{"smiles": "Cc1cc(C)n(Cc2ccc(-c3noc(C(=O)NC[C@@H](C)O)n3)cc2)n1", "A": 3.172, "B": -2.41, "C": 1.099, "D": 4.4}